Assay results: patent publication US20020036154A1, “Solid pharmaceutical dosage formulation of hydrophobic drugs” (priority 2000, published 2002)
Like-named read-outs stand apart in the source and are kept apart here.

Settings: 1 mg CCN90906A, 50 rpm paddles, simulated intestinal fluid, n=6, FIG. 8

## Cc1cnc(C(=O)NCCc2ccc(S(=O)(=O)NC(=O)NC3CCCCC3)cc2)cn1 [CCN90906A, Glipizide]
Polysorbate 80 incorporated in film Accudep Core (20%)
  dissolution, especially during the first 60 minutes: faster dissolution
SLS incorporated in film Accudep Core (20% SLS)
  dissolution, especially during the first 60 minutes: faster dissolution
